This is one part of the list.

Sequences of proteins named here, by UniProt entry; tags and fusion partners are left off.
UniProt Q0JBA9, entry or part of it: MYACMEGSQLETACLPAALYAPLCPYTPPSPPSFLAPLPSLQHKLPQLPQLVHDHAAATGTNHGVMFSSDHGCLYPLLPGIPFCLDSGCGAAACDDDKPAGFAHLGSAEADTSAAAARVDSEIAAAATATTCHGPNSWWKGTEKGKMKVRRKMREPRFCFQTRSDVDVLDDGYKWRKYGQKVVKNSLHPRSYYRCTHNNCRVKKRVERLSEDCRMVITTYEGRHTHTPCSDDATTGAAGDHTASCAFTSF

This assay concerns the target OsWRKY34 (Oryza sativa, UniProt Q0JBA9 1-250). Nature of the assay: protein-binding microarray (RPBM); PBS, 2% BSA, 51.3 ng/ul salmon testes DNA, 50 uM zinc acetate, 200 nM TF, 25 C, 1 h; high values mean tight binding. The following applies: protein: recombinant; tags: N-terminal polyhistidine and DsRed monomer fusion (pET32a); label: CyDye5-dUTP incorporated in the synthesized complementary strand; 3' TTTTT single-stranded linker to array surface; dsDNA, one strand shown. Put shortly:
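The binding signal is fluorescence intensity per array feature (arbitrary units). Readings came from an Axon 4000B scanner after a washed, 2% BSA-blocked, double-stranded custom Agilent array had been incubated for 1 h at 25 °C with 200 nM protein and 50 µM zinc acetate. The protein was a Ni–NTA-purified transcription factor fused N-terminally to polyhistidine and DsRed, expressed in E. coli BL21-CodonPlus.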
Turning to “GCCTATCTTAATACTACCAGCTTTCCATCTCAAACCCAGTCGGAGTCACCTAGTGCAG”, the binding signal is 11300 fluorescence intensity (a.u.). With “GATCTTCTCGCAGCAGTTTCAGCACAGCTCTCCAGGTCTACGGAGTCACCTAGTGCAG”, the binding signal is 10700 fluorescence intensity (a.u.). With “CTCGGCCCATATATTTGTCTTGGCACAGGCGCTCAACTGGCGGAGTCACCTAGTGCAG” the figure was 8070 fluorescence intensity (a.u.).

For the sequence “GCAACACAACGCGCTCGCCTCGCCTCGCCCCGATCGGTGGCGGAGTCACCTAGTGCAG”, the binding signal was 8670 fluorescence intensity (a.u.).

“ACTTCACTCTCTCTCTCTCTCTCTCTCTCGTGCGCCGCGCCGGAGTCACCTAGTGCAG”: the binding signal is 16300 fluorescence intensity (a.u.).

On to “AGTTTTGTTTCTTTCCTGTTCACAGTTCACCTTTGCCTTTCGGAGTCACCTAGTGCAG”, for which the binding signal is 12400 fluorescence intensity (a.u.). For “GTCCCTAAATATTTGACGCCGTTGACTTTTTTAAACATGTCGGAGTCACCTAGTGCAG”, the binding signal is 28500 fluorescence intensity (a.u.).

Consider “GATTATCCGGCCACGCCCTGCCACAATTCAGCTCGAATTCCGGAGTCACCTAGTGCAG”, for which the binding signal was 11600 fluorescence intensity (a.u.). For the sequence “TCCGTTTCGAAATGCTTGACGCCGTTGACTTTTTTAAACACGGAGTCACCTAGTGCAG”, the binding signal is 19400 fluorescence intensity (a.u.). “GGTATAGGGGTCGGTTGTTTTTATTGGTGCCGACCAATAGCGGAGTCACCTAGTGCAG”: the binding signal was 8420 fluorescence intensity (a.u.).

As to “GTTCCATATATTTTAGCACATCTGTAGCACACAACACATACGGAGTCACCTAGTGCAG”, the binding signal was 11300 fluorescence intensity (a.u.). “TACATATTGATCTATCTTGCCAATTTTTTTGAAAATTTTTCGGAGTCACCTAGTGCAG”: the binding signal is 9440 fluorescence intensity (a.u.). “GCCGTCCTGGCGTACCTGTCCGTGCCCAGCCTCATCGAGCCGGAGTCACCTAGTGCAG”: the binding signal is 8510 fluorescence intensity (a.u.).

Consider “CAATCTCCATAGGTTGGTCTCACACGCTCCTCATCCTCTCCGGAGTCACCTAGTGCAG”, for which the binding signal was 11000 fluorescence intensity (a.u.). Take “ATATTATAATTTGTTTTTATTTTTTCCAGTCAAACTTCTTCGGAGTCACCTAGTGCAG”: the binding signal is 8220 fluorescence intensity (a.u.). For “TCCTCTGTGTCCAAAAGTTGCAACTCCTCCACCCTTTCTTCGGAGTCACCTAGTGCAG”, the binding signal was 8730 fluorescence intensity (a.u.). Regarding “CTCTTGCCGCGCGCATCAAACGCGATACATCGATCTCCTCCGGAGTCACCTAGTGCAG”, the binding signal was 8090 fluorescence intensity (a.u.). On to “GCTCTTGCTAATTTTTCTCCAAAATCTCTATAGAATTTTCCGGAGTCACCTAGTGCAG”, for which the binding signal was 9290 fluorescence intensity (a.u.). To “TTTTTTGGCCAGCGGTTGTTGTTTGCCTTTTTTTTTTTTTCGGAGTCACCTAGTGCAG” belongs 9500 fluorescence intensity (a.u.).

Consider “GACGAATGGTCAAACATTGGTTAAAAAGTCAACGGCGTTACGGAGTCACCTAGTGCAG”, for which the binding signal was 10100 fluorescence intensity (a.u.).

Consider “GCGCCCCAACTTCCAACTCACAGTTCCTCCTCGTCATTCACGGAGTCACCTAGTGCAG”, for which the binding signal was 8280 fluorescence intensity (a.u.). As to “GACTATTCTTGGGGTATAACCTTCTTATATTATTTTAATTCGGAGTCACCTAGTGCAG”, the binding signal was 9920 fluorescence intensity (a.u.). With “CATCGGGTTCATGTTCCTCGTCAGTTTTGTTGGGCTATTTCGGAGTCACCTAGTGCAG” the figure was 8620 fluorescence intensity (a.u.); with “TTCGGTTGGGTGGAGGAAGCGCGGGTGAAAAAGGTGGGGACGGAGTCACCTAGTGCAG”, 10600 fluorescence intensity (a.u.); with “TTCTGTCTTCTAGTTCATTTTCCAGATTCTACATCTATAGCGGAGTCACCTAGTGCAG”, 8180 fluorescence intensity (a.u.). With “TGTGTCTTGATTAATTTTCTGTGAGCTCTTCATCTGGTCTCGGAGTCACCTAGTGCAG” the figure was 9200 fluorescence intensity (a.u.); with “CAGCTGGTCACCCGTCTGCTATTTAAGCGATCTCCCGCACCGGAGTCACCTAGTGCAG”, 8910 fluorescence intensity (a.u.); with “TGACCTATTTGATGAGCCTACTTGCCAATTATCGTAGCTTCGGAGTCACCTAGTGCAG”, 8320 fluorescence intensity (a.u.). With “GACATATCATATCTGGTGTTGCCTTTCAGGGACGAAATTTCGGAGTCACCTAGTGCAG”, the binding signal was 8280 fluorescence intensity (a.u.).

Consider “GTTTATTTTCTTCGGAATTTCAGTTAGCATGTATTATTTTCGGAGTCACCTAGTGCAG”, for which the binding signal was 12100 fluorescence intensity (a.u.). As to “CCCACCACCACCACCACCACCATCACCTCATCTATCCGCGCGGAGTCACCTAGTGCAG”, the binding signal was 10300 fluorescence intensity (a.u.). Consider “GCCTCTCCTCACCCACTCCGCTCTCCGCTCCATTAAACCCCGGAGTCACCTAGTGCAG”, for which the binding signal was 8450 fluorescence intensity (a.u.). “GTTCCTTACTCAATTCTCCATCACCATCCCATCAAAATTCCGGAGTCACCTAGTGCAG”: the binding signal is 8990 fluorescence intensity (a.u.). With “TTGTTAAGTCTAAGGTCTCCGTCGTTTGGCTTATTTCCTACGGAGTCACCTAGTGCAG” the figure was 8970 fluorescence intensity (a.u.); with “GAATTTGGCTAGGTTGTACTCTTTTTTTCCTTGCATAAGTCGGAGTCACCTAGTGCAG”, 8720 fluorescence intensity (a.u.); with “AGACCCATTTCGTCCATGCATTGATACTAAACAATCCAACCGGAGTCACCTAGTGCAG”, 8140 fluorescence intensity (a.u.). On to “GCAGCAAACGACTACTTTCTTTCTATGCGTAACTTTTTTTCGGAGTCACCTAGTGCAG”, for which the binding signal was 8330 fluorescence intensity (a.u.).

In the case of “TTAGTTCAGCGTTTGCCCTGTATTTATGTTGGCATGCCACCGGAGTCACCTAGTGCAG”, the binding signal is 8220 fluorescence intensity (a.u.). In the case of “CTTGAGGTCATCCCTGTCATTGATCTCTACAAGTTCGAGCCGGAGTCACCTAGTGCAG”, the binding signal was 10400 fluorescence intensity (a.u.). Regarding “TACTGGGGAATCGGTGGTGGTGGCGGCGGCGGTGGCGGCGCGGAGTCACCTAGTGCAG”, the binding signal was 9690 fluorescence intensity (a.u.). As to “GCCGTTTCTTCTTTCTTTTTTTTTTCCGTGTGTGTCGTTTCGGAGTCACCTAGTGCAG”, the binding signal is 16600 fluorescence intensity (a.u.).

“GGGGAAATCGCTACCTAATCTGGCCTAACCGAGGTAATTACGGAGTCACCTAGTGCAG”: the binding signal is 9030 fluorescence intensity (a.u.).
